# Source: publication PMC7617106
# These are yes or no findings as the source states them, for the method shown. Some entries that bind do so weakly or less than the wild type.
# T1: CBP-Csm3 (S. cerevisiae) (UniProt Q04659)
# T1 sequence: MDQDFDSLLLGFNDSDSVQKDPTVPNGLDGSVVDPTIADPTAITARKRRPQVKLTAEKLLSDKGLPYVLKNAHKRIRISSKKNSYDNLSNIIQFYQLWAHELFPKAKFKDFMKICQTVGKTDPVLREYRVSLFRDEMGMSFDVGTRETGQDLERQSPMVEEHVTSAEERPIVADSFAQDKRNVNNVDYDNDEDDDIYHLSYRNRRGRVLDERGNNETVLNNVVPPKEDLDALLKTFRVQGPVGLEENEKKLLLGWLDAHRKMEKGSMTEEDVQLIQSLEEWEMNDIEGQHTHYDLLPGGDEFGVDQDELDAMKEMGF
# B1: Tof1^1-783 (Tof1 with the flexible C terminus removed) (domain or fragment, UniProt P53840 1-783)
# chain: MSADLQQGTTNAADFSLTVLRARIALLATAIGGPDYTSQIDPPPYKLGDDCLACLKDLKRWFKLVDDQQKRWDVAMAVAEYRILTDDLLPILIDWENKCSLAAKLAKNNPDHEEFRNKAYYDKIALNCLQLLVLMTWPLIVTEQSSSNQITLYGELKKHQLVYKKTILSMESGKVLRAAIRLALDVIKIDRLSRTPRDNMVLKLVLNFFRNVIAIEPGEFTINTKKSMPKKGITSIDTLPPNVSMDDISLNTVISSFHKNKVFGFLLTLTSSLSKEFDQDFINIPLLEIMFYFTKDVNQELLFPRQFETGTHSKVVNKNESSSANNIVTSAGFELSKLLQKEHQMRKNVIKHTSARHSRFGGLLSIQTPDKTRLTVSGSQALVDEKIALQKLDDSKKWNKRIIKKHQSVAAEGLPNSLLNSQTGKAIFFTESNGKHFKEFINNFIDSGFNILLHSVTNYFTTEQDRMVTLEQVEYLLFFAWFVKYQLLRSKIDNSADIKQVSEALKEVTFILVSSLLRSAYDLKNWTVTHAGMIAFNELLNLVSRTKAAQEEDSTDIEFIVSRLFSDERIQLLSNLPKIGSKYSLQFMKSCIELTHSVLKVLEQYSDDKTLVIEGKSRRQKKFNISEGDITKLIEEENVDRDEALDILTSSLRSIEVNFQKVQANYMTEPVIETYINFLERFRELEDDSIKKVFSFFHRVFVQAKEQALLFRFDLIILLREMLSPDGLDRMSRSRKYVSQFSDYFLARLKKRLKKSPAWFVGLLFPPLHNSEVGFYQRYGEYN
# Biological target: T1, CBP-Csm3 (S. cerevisiae)
# Assay: co-purification; tof1 1-783 and CBP-Csm3 co-expressed in S. cerevisiae yRW9 and purified as a complex; strategy in Table S3
binder,measurement,value
B1,binding,binds
